The list shows a part of the results.

For this test, the target named is T1, OsSMF1 (Oryza sativa, UniProt Q6ZLB0 1-436).
T1 sequence: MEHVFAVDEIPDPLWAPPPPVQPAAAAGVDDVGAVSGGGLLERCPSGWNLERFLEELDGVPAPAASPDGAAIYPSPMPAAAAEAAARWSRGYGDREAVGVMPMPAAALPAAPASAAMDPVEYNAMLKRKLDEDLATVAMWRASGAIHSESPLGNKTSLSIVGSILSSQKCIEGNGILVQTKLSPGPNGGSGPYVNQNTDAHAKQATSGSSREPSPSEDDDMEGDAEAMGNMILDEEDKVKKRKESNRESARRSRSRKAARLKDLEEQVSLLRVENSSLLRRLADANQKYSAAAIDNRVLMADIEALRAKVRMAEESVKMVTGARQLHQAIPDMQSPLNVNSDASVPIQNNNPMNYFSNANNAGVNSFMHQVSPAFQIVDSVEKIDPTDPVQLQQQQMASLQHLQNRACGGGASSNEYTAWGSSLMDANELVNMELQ
Briefly: protein-binding microarray (RPBM); PBS, 2% BSA, 51.3 ng/ul salmon testes DNA, 50 uM zinc acetate, 200 nM TF, 25 C, 1 h; high values mean tight binding. Particulars: protein: recombinant; tags: N-terminal polyhistidine and DsRed monomer fusion (pET32a); chain copies: 2; label: CyDye5-dUTP incorporated in the synthesized complementary strand; 3' TTTTT single-stranded linker to array surface; dsDNA, one strand shown. Put shortly:
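A custom Agilent array was converted to double-stranded form by primer extension with Cy5-dUTP and blocked with 2% BSA. Protein at 200 nM in PBS with 2% BSA, salmon testes DNA and 50 µM zinc acetate was applied for 1 h at 25 °C, followed by washing. The proteins were polyhistidine–DsRed N-terminal fusions of transcription factors, expressed in E. coli BL21-CodonPlus and Ni–NTA-purified. The binding signal is per-feature fluorescence intensity (arbitrary units) from an Axon 4000B scanner.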
For the sequence “GAAAATAAAAGGAAACGTCACACGCAGCTCCGCCGCAACCCGGAGTCACCTAGTGCAG”, the binding signal was 3570 fluorescence intensity (a.u.).

In the case of “AGGTGAGGCGAGGCGGTTACGCTGGCAGCACTCATCTCGTCGGAGTCACCTAGTGCAG”, the binding signal is 3240 fluorescence intensity (a.u.).

With “CAACCACCAACTCCACACGCTGTTCATGTCACGACGGTTTCGGAGTCACCTAGTGCAG”, the binding signal was 3290 fluorescence intensity (a.u.).

“AGGGGTGATGTTTCGGAGTTTGGTGGCATCATCATCATCCCGGAGTCACCTAGTGCAG”: the binding signal is 3540 fluorescence intensity (a.u.).

For “CCACAGTCGCTTGCCGACGAGCTTGAAGCCTCAACGACATCGGAGTCACCTAGTGCAG”, the binding signal is 4790 fluorescence intensity (a.u.).

Regarding “ACAGCCGTACCCCACATACACCCTCTGCTCATGCCCTGCCCGGAGTCACCTAGTGCAG”, the binding signal was 3240 fluorescence intensity (a.u.).

Turning to “CCATTTCGAACAAATTGTAAAGAATCTGACGTTTTATTTCCGGAGTCACCTAGTGCAG”, the binding signal was 3870 fluorescence intensity (a.u.).

Regarding “TAACAGGGAGGCGTATTTCATAGCGAACGTGACACGCAGACGGAGTCACCTAGTGCAG”, the binding signal was 3140 fluorescence intensity (a.u.).

“GGTGGGCCGTAGCCCACGTGGGCCCAATTGACAAGGTGGGCGGAGTCACCTAGTGCAG”: the binding signal is 4380 fluorescence intensity (a.u.).

For the sequence “TATCCTTTTCCGGCTACGTGTTGATTTTGCTCGTTTGTTCCGGAGTCACCTAGTGCAG”, the binding signal is 3580 fluorescence intensity (a.u.).

Turning to “TCCAATGTTCGTCTGCGGCATCACCATGCACCATGGATCCCGGAGTCACCTAGTGCAG”, the binding signal is 3500 fluorescence intensity (a.u.).

Take “GCCGGGACGACCACGTTCCTCACCATGGCCTACATCCTCGCGGAGTCACCTAGTGCAG”: the binding signal is 37500 fluorescence intensity (a.u.).

“CGTTCTCATGCGGCATCCGTTTGTACGACCAGGGCCCATCCGGAGTCACCTAGTGCAG”: the binding signal is 3250 fluorescence intensity (a.u.).

“AGAGAGGCATCTAGCGCGTGCACACATCAGCAGCAGGCAACGGAGTCACCTAGTGCAG”: the binding signal is 5920 fluorescence intensity (a.u.).

Take “GCCAACCGCTTCAGTGTCAGTCACTCACAACCCAGTGATGCGGAGTCACCTAGTGCAG”: the binding signal is 3430 fluorescence intensity (a.u.).

Take “AGTTGCGTGACAACTAATAAAATACTAACACAATGTCTTACGGAGTCACCTAGTGCAG”: the binding signal is 4060 fluorescence intensity (a.u.).

On to “GTCCGATCGGACGCACCACGCATCCTAGCCGTCCACGCCACGGAGTCACCTAGTGCAG”, for which the binding signal is 3180 fluorescence intensity (a.u.).

As for “TTATTTTATATACTGCCCTGCTCTTCTCTAAACAGCAGAGCGGAGTCACCTAGTGCAG”, the binding signal was 19000 fluorescence intensity (a.u.).

As for “TCCTCCACCATGCGGGCCCCACACATATCCGGTTTCTTCTCGGAGTCACCTAGTGCAG”, the binding signal is 3640 fluorescence intensity (a.u.).

Take “GAAACCCTCTTCTGGTTTCTTGCTCCACGGCGGCGGTTTGCGGAGTCACCTAGTGCAG”: the binding signal was 3640 fluorescence intensity (a.u.).

As to “CATCGGCTAGATTTATTATCGATACGTCATCGGCTCATCACGGAGTCACCTAGTGCAG”, the binding signal is 7110 fluorescence intensity (a.u.).

Regarding “GTTTGATTATGTGGTCTGCATGTGCCTAGTTTGACATCAGCGGAGTCACCTAGTGCAG”, the binding signal is 4580 fluorescence intensity (a.u.).

In the case of “ATTGTGTACAGTTGATGTCATGTGTTGTCCCAATAGCAAACGGAGTCACCTAGTGCAG”, the binding signal is 5500 fluorescence intensity (a.u.).

Regarding “GCGCGGAGCAGCTGCAGGGTCCACGTGATGCCGCGCCGTGCGGAGTCACCTAGTGCAG”, the binding signal is 4200 fluorescence intensity (a.u.).

“GCGAGTGAACTAAATCATGCAACCGTATTGCTGACCAGACCGGAGTCACCTAGTGCAG”: the binding signal was 3400 fluorescence intensity (a.u.).

As to “GGACTATAAGCTAACCACGCCACGCCGATATCACTGTTCCCGGAGTCACCTAGTGCAG”, the binding signal is 3710 fluorescence intensity (a.u.).

On to “TATTTATTATATCCCCACCATGGAGCATCAGTCATCTTGTCGGAGTCACCTAGTGCAG”, for which the binding signal was 3430 fluorescence intensity (a.u.).

As to “CGCGCGCTCGCGCGCTCGTGCCTTCCTCGTCACGACACCCCGGAGTCACCTAGTGCAG”, the binding signal was 3280 fluorescence intensity (a.u.).

Regarding “GACTCGTCGAAACGGTGCAGACGGGGAGAGCCGAGCCAGTCGGAGTCACCTAGTGCAG”, the binding signal was 3370 fluorescence intensity (a.u.).

In the case of “AAAATGTGCCAAGTCTGACCGCGTCTTAGTGAAGTACTTACGGAGTCACCTAGTGCAG”, the binding signal is 3280 fluorescence intensity (a.u.).

Consider “GCAGTCTCTAGTCTGTACAGGAGAGTTGCTTACCGTAGCCCGGAGTCACCTAGTGCAG”, for which the binding signal is 23600 fluorescence intensity (a.u.).

Regarding “ACGCGGATCGGACGGCTCAGATGCAGCGCCACGACGATCGCGGAGTCACCTAGTGCAG”, the binding signal is 3390 fluorescence intensity (a.u.).

As to “GAGGGCTGCTGTGCTATTCTTCCTGGACATCTCTGGTTCTCGGAGTCACCTAGTGCAG”, the binding signal was 4540 fluorescence intensity (a.u.).

For the sequence “TTTAGATGATTCGTCTCTGACTCGATTTTAACAGATTAATCGGAGTCACCTAGTGCAG”, the binding signal is 3710 fluorescence intensity (a.u.).

As to “ACAATATGAACCAAAGTGCCTCGGTTCATACACTATCCTTCGGAGTCACCTAGTGCAG”, the binding signal was 3220 fluorescence intensity (a.u.).

In the case of “GAGCTTTTGGCACACAAAATGACGTATGCATGTCTTATTACGGAGTCACCTAGTGCAG”, the binding signal is 4540 fluorescence intensity (a.u.).

For the sequence “CCAACGGTAAGTGAGGATTAATCAAGCTTAATCTCACCACCGGAGTCACCTAGTGCAG”, the binding signal was 3570 fluorescence intensity (a.u.).

On to “TAGTTCGGGGCGTGACACACGTGTACTTCAAAATTCAAAGCGGAGTCACCTAGTGCAG”, for which the binding signal was 3650 fluorescence intensity (a.u.).

Turning to “TTACTCTCAAGAATGATGTGGAATTTGAGCCGTTAAGAAACGGAGTCACCTAGTGCAG”, the binding signal was 3870 fluorescence intensity (a.u.).

For “GAGCCTTACCGGCTCAGACTTGGCATGACGTGGACGTACACGGAGTCACCTAGTGCAG”, the binding signal was 22500 fluorescence intensity (a.u.).

Take “TGCCATTGCCACCACCTCGCTCTCTCCTTCCTTCTCCGACCGGAGTCACCTAGTGCAG”: the binding signal was 3350 fluorescence intensity (a.u.).

As to “GGGCGGAGCTAGAATAAAATAAAGGAGGGTTCCACTCGTTCGGAGTCACCTAGTGCAG”, the binding signal is 23100 fluorescence intensity (a.u.).

Values taken from paper PMC7819943, “Rice protein-binding microarrays: a tool to detect cis-acting elements near promoter regions in rice”.
